No constants are given. Whether binding was seen depends on the method and setting. Binding seen in cells or lysates may run through a third protein. Some binding calls cover weakened binding; strength is not graded here.
Biological target: T1, TCF4, endogenous (mouse intestinal organoids and crypts) (mouse (endogenous in intestinal organoids and crypts)), Q924A0
T1 chain: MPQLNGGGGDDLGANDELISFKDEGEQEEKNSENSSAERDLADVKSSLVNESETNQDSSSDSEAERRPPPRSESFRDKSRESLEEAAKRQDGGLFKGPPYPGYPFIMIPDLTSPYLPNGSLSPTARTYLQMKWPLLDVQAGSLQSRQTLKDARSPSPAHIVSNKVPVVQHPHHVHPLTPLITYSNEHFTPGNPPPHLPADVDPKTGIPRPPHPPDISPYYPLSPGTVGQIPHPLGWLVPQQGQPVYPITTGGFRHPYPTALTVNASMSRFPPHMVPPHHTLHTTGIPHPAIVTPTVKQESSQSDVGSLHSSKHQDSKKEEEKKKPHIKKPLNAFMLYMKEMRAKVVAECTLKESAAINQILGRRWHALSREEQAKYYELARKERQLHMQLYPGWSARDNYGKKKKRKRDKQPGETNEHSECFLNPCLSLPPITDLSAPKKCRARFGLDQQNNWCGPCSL
Test: co-IP; crypts of control and Bcl11b cKO mice, 1 day after 5 daily tamoxifen doses; immunoprecipitation with anti-TCF4 antibody or control IgG, immunoblotting
Details: remark: other sources report otherwise

binding: binds
B1: β-catenin, endogenous (mouse intestinal organoids and crypts), Q02248 1-781 (protein)
chain: MATQADLMELDMAMEPDRKAAVSHWQQQSYLDSGIHSGATTTAPSLSGKGNPEEEDVDTSQVLYEWEQGFSQSFTQEQVADIDGQYAMTRAQRVRAAMFPETLDEGMQIPSTQFDAAHPTNVQRLAEPSQMLKHAVVNLINYQDDAELATRAIPELTKLLNDEDQVVVNKAAVMVHQLSKKEASRHAIMRSPQMVSAIVRTMQNTNDVETARCTAGTLHNLSHHREGLLAIFKSGGIPALVKMLGSPVDSVLFYAITTLHNLLLHQEGAKMAVRLAGGLQKMVALLNKTNVKFLAITTDCLQILAYGNQESKLIILASGGPQALVNIMRTYTYEKLLWTTSRVLKVLSVCSSNKPAIVEAGGMQALGLHLTDPSQRLVQNCLWTLRNLSDAATKQEGMEGLLGTLVQLLGSDDINVVTCAAGILSNLTCNNYKNKMMVCQVGGIEALVRTVLRAGDREDITEPAICALRHLTSRHQEAEMAQNAVRLHYGLPVVVKLLHPPSHWPLIKATVGLIRNLALCPANHAPLREQGAIPRLVQLLVRAHQDTQRRTSMGGTQQQFVEGVRMEEIVEGCTGALHILARDVHNRIVIRGLNTIPLFVQLLYSPIENIQRVAAGVLCELAQDKEAAEAIEAEGATAPLTELLHSRNEGVATYAAAVLFRMSEDKPQDYKKRLSVELTSSLFRTEPMAWNETADLGLDIGAQGEALGYRQDDPSYRSFHSGGYGQDALGMDPMMEHEMGGHHPGADYPVDGLPDLGHAQDLMDGLPPGDSNQLAWFDTDL

Reference: paper PMC11612440
